In article doi:10.1101/250936 one finds binding data, which are given here for two substances.

Amino acid sequences for entries named in this document (tags omitted). A change or cut given only in a name is not applied to a line headed by its entry.
UniProt P46940: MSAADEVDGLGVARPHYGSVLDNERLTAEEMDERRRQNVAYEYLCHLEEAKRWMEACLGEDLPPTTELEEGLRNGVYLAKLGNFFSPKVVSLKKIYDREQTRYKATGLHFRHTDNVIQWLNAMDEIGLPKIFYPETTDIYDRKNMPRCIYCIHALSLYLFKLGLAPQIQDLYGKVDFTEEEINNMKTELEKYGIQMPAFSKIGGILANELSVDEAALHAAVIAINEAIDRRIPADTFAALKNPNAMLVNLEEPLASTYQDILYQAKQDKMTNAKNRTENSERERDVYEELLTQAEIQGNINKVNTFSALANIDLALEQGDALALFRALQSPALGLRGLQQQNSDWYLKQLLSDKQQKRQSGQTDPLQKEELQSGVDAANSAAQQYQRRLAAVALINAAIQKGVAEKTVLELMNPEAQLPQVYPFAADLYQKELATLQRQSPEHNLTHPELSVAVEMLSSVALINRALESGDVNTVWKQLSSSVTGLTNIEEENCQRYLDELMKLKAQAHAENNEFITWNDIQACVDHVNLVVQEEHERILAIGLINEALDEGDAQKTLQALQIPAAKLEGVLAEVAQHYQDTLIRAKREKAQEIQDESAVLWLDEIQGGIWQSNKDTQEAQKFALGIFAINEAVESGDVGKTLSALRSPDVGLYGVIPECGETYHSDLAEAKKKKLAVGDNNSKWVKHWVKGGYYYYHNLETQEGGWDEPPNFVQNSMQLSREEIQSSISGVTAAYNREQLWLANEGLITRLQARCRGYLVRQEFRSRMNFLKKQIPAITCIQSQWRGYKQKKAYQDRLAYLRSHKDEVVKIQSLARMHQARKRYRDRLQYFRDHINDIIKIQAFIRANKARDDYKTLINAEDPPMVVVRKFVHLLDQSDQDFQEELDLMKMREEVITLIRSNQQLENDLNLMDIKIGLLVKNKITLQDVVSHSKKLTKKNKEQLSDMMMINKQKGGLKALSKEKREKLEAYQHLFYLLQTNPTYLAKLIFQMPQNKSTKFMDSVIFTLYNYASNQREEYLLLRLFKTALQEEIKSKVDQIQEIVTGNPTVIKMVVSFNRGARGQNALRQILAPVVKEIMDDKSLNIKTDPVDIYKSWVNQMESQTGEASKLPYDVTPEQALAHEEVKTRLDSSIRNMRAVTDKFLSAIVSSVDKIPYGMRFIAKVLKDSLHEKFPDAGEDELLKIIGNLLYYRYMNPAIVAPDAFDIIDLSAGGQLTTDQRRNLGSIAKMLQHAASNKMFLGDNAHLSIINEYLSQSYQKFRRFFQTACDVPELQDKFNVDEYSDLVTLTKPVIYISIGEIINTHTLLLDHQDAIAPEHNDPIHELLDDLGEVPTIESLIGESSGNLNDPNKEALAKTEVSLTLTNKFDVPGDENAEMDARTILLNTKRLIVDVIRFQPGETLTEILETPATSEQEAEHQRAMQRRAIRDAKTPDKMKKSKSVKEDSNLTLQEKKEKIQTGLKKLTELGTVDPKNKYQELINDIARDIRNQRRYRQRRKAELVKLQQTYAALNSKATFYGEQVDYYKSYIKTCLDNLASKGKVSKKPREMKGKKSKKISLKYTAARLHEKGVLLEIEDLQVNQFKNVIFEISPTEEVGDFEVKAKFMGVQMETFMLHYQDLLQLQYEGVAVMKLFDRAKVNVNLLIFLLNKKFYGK
UniProt P27986: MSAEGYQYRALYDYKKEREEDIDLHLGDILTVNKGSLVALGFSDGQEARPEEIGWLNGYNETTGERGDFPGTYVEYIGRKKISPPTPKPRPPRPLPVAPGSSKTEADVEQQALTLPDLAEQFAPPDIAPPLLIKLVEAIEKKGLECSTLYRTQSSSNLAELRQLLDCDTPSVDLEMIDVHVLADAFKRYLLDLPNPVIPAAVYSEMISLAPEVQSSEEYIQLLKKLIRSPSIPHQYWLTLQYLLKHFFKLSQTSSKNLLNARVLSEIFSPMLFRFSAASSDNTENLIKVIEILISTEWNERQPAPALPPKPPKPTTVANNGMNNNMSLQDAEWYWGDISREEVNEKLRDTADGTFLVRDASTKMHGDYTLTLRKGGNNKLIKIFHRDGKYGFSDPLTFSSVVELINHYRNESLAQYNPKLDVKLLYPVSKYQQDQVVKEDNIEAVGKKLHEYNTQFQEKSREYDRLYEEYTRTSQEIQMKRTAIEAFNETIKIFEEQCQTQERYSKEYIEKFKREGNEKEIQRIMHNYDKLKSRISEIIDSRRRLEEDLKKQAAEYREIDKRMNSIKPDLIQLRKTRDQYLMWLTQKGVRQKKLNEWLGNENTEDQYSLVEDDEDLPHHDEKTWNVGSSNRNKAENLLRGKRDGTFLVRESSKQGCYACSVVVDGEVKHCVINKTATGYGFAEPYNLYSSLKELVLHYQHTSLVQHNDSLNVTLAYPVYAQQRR

No constants are given. Whether binding was seen depends on the method and setting. Binding seen in cells or lysates may run through a third protein. A result given as binding can be weak or reduced; the word gives no strength.

Test [1] concerns the target Myc-tagged IQ3 motif deleted IQGAP1 (IQGAP1^ΔIQ3) (UniProt P46940). The experiment in a line: proximity ligation.
Test [2] shares this target. Description: proximity ligation. This is another data set of the same source.
For test [3] the target is unchanged. The experiment in a line: co-IP.

For “Epidermal growth factor receptor (EGFR) (from UniProt P00533 25-1210)”, the binding result in test [1], in test [2] and in test [3] was “binds” throughout.

With “PI3K regulatory subunit p85α (from UniProt P27986 1-724)”, the binding result in test [1] and in test [3] was “binds” throughout.
